Assay results published in patent US20250146080A1, “METHODS FOR OVERCOMING TAZEMETOSTAT-RESISTANCE IN CANCER PATIENTS” (MEMORIAL SLOAN-KETTERING CANCER CENTER, priority 2022, published 2025).
Like-named read-outs stand apart in the source and are kept apart here.

Tests used:
RB1^del G401 cells = test: Cell viability (CellTiter-Glo), G401 RB1^del clones E1 and F2; assay type: cell-based; details: Homo sapiens, G-401, 96 h
Protocol: G401 cells with RB1 mutations were engineered by Synthego. […] Ribonucleprotein containing spCas9 and sgRNA was transfected into G401 cells by electroporation. […] The cells were then single-cell cloned and re-verified by Sanger sequencing.
Drug and media were replaced on Days 4, 7, and 11. […] CellTiter-Glo reagent was freshly reconstituted on the day of measurement and added in a 1:1 proportion to cell media. […] Cell line doubling time was determined by measuring cell viability every 24 hours over the course of 4 days, and fitting the cell viability to a two-parameter exponential curve. […] After the addition of cells, drugs were added using a pin tool (stainless steel pins with 50 nL slots, V&P Scientific) mounted onto a liquid handling robot (CyBio Well vario, Analytik Jena). For analysis of synergy, we used the synergyFinder package (2). Outliers due to pinning errors were excluded after manual examination.

RB1^WT G401 cells = test: Cell viability (CellTiter-Glo) dose response, G401 RB1^WT; assay type: cell-based; details: Homo sapiens, G-401, 96 h, read-out: half-maximal effective concentration
Protocol: Drug and media were replaced on Days 4, 7, and 11. CellTiter-Glo assays were performed on Day 14, with luminescence readings taken using an automated fluorescence plate reader (Tecan). CellTiter-Glo reagent was freshly reconstituted on the day of measurement and added in a 1:1 proportion to cell media. […] Cell line doubling time was determined by measuring cell viability every 24 hours over the course of 4 days, and fitting the cell viability to a two-parameter exponential curve. […] After the addition of cells, drugs were added using a pin tool (stainless steel pins with 50 nL slots, V&P Scientific) mounted onto a liquid handling robot (CyBio Well vario, Analytik Jena). For analysis of synergy, we used the synergyFinder package (2). Outliers due to pinning errors were excluded after manual examination.

C[C@@H]1COCCN1c1cc(-c2ccnn2C)c2ccnc(-c3ccn[nH]3)c2n1 [elimusertib]
EC50 (RB1^del G401 cells; read-out: half-maximal effective concentration, G401 RB1^del E1 clone, elimusertib for 4 days): 19.2 ± 3.8 nM
EC50 (RB1^del G401 cells; read-out: half-maximal effective concentration, G401 RB1^del F2 clone, elimusertib for 4 days): 26.7 ± 3.2 nM
EC50 (RB1^WT G401 cells): 17.6 ± 1.6 nM
